These are yes or no findings as the source states them, for the method shown. Where a sequence is shown, tags or fusion partners need not be part of it.
Legend:
[1] = target: T1, His6-tagged human glycolipid transfer protein (GLTP) (human), Q9NZD2; test: AUC; sedimentation equilibrium, GSL-free (apo) GLTP; 7, 15 and 30 μM; 19,000 and 22,000 rpm; 20 °C; 20 mM Tris-HCl (pH 8.0), 150 mM NaCl; both purified; conditions: remark: other sources report otherwise
T1 chain: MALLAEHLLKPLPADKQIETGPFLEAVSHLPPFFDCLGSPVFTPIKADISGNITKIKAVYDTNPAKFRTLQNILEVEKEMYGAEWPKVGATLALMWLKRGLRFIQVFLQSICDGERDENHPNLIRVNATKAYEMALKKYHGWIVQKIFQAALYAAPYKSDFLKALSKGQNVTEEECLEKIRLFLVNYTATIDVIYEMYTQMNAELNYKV

[2] = target: T1, His6-tagged human glycolipid transfer …; test: AUC; sedimentation equilibrium, GLTP complexes with n-hexyl-β-D-glucoside, 18:1 LacCer or 24:1 GalCer; 7, 15 and 30 μM; 19,000 and 22,000 rpm; 20 °C; 20 mM Tris-HCl (pH 8.0), 150 mM NaCl; both purified; conditions: remark: other sources report otherwise

B1: His6-tagged human glycolipid transfer protein (GLTP), Q9NZD2 1-209 (protein)
chain: MALLAEHLLKPLPADKQIETGPFLEAVSHLPPFFDCLGSPVFTPIKADISGNITKIKAVYDTNPAKFRTLQNILEVEKEMYGAEWPKVGATLALMWLKRGLRFIQVFLQSICDGERDENHPNLIRVNATKAYEMALKKYHGWIVQKIFQAALYAAPYKSDFLKALSKGQNVTEEECLEKIRLFLVNYTATIDVIYEMYTQMNAELNYKV
[1]
  binding: no binding (tested: 30 μM)
[2]
  binding: no binding (tested: 30 μM)

From article PMC1618416, “The Liganding of Glycolipid Transfer Protein Is Controlled by Glycolipid Acyl Structure” (PLoS Biology, 2006)
